US10138233B2, “Imidazole compounds as modulators of FSHR and uses thereof” (Merck Patent GmbH, priority 2013, dated 2018)
The structures given here were assigned with low confidence; some may be wrong.

Amino acid sequences for entries named in this document (tags omitted). Residues count along the entry.
UniProt P23945, 18-695 limits assumed: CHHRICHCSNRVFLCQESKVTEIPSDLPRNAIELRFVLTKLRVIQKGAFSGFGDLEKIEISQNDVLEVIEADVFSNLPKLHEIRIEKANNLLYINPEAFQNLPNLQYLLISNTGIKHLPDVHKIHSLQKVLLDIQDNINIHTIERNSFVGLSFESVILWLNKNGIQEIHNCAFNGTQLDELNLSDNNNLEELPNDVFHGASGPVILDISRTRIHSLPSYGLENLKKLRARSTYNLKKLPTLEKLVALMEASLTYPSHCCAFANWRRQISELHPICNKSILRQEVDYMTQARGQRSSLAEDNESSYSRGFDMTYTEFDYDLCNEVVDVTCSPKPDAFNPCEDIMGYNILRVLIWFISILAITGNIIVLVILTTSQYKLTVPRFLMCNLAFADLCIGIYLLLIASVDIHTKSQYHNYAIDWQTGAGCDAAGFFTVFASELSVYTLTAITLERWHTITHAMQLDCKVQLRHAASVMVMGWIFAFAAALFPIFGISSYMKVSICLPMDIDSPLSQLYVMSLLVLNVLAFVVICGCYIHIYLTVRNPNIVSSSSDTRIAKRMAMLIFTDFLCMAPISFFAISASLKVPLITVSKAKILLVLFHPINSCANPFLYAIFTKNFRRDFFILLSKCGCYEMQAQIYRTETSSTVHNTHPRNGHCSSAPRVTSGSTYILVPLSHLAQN
UniProt P20395, 18-692 limits assumed: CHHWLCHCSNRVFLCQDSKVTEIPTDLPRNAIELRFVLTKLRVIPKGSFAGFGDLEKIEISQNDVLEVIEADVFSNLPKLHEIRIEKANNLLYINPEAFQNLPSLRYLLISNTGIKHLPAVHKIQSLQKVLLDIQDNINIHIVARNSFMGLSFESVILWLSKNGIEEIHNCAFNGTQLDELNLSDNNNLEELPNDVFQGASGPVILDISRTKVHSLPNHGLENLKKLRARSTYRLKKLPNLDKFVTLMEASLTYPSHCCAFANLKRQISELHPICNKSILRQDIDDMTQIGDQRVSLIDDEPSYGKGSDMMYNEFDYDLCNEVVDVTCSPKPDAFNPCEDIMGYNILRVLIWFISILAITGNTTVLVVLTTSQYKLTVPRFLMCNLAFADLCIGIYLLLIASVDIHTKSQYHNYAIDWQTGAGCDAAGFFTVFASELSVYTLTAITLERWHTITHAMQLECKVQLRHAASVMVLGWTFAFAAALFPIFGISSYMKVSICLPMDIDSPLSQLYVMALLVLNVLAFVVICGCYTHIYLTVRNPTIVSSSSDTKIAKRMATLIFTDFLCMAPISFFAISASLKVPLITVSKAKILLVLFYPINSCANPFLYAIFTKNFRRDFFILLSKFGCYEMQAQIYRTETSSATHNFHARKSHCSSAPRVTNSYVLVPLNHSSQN

Legend:
[1] = molecular target: FSHR (Homo sapiens, UniProt P23945); assay: EC50 of cyclic AMP production in CHO FSHR cells + EC20 FSH (Assay A); settings: read-out: Assay A: EC50 of cyclic AMP production in CHO FSHR cells+EC20 FSH; CHO-FSHR-LUC cells, in presence of EC20 FSH, cAMP HTRF, 1 h 37° C.
[2] = molecular target: follicle-stimulating hormone (FSH) receptor (Rattus norvegicus, UniProt P20395); assay: Rat Granulosa EC50 FSH (Assay B); settings: read-out: Assay B: Rat Granulosa EC50 FSH; rat granulosa cells, per Yanofsky et al. 2006

For COc1cc2c(cc1OC(C)C)-n1c(-c3cccs3)nc(C(=O)N(C)C(C)(C)C)c1CO2, the EC50 [1] was < 100 nM and the EC50 [2] was 1000 to 5000 nM.
